# In article doi:10.1101/2022.09.12.507607:
# Amino acid sequences for entries named in this document (tags omitted).
# UniProt Q6PDQ2: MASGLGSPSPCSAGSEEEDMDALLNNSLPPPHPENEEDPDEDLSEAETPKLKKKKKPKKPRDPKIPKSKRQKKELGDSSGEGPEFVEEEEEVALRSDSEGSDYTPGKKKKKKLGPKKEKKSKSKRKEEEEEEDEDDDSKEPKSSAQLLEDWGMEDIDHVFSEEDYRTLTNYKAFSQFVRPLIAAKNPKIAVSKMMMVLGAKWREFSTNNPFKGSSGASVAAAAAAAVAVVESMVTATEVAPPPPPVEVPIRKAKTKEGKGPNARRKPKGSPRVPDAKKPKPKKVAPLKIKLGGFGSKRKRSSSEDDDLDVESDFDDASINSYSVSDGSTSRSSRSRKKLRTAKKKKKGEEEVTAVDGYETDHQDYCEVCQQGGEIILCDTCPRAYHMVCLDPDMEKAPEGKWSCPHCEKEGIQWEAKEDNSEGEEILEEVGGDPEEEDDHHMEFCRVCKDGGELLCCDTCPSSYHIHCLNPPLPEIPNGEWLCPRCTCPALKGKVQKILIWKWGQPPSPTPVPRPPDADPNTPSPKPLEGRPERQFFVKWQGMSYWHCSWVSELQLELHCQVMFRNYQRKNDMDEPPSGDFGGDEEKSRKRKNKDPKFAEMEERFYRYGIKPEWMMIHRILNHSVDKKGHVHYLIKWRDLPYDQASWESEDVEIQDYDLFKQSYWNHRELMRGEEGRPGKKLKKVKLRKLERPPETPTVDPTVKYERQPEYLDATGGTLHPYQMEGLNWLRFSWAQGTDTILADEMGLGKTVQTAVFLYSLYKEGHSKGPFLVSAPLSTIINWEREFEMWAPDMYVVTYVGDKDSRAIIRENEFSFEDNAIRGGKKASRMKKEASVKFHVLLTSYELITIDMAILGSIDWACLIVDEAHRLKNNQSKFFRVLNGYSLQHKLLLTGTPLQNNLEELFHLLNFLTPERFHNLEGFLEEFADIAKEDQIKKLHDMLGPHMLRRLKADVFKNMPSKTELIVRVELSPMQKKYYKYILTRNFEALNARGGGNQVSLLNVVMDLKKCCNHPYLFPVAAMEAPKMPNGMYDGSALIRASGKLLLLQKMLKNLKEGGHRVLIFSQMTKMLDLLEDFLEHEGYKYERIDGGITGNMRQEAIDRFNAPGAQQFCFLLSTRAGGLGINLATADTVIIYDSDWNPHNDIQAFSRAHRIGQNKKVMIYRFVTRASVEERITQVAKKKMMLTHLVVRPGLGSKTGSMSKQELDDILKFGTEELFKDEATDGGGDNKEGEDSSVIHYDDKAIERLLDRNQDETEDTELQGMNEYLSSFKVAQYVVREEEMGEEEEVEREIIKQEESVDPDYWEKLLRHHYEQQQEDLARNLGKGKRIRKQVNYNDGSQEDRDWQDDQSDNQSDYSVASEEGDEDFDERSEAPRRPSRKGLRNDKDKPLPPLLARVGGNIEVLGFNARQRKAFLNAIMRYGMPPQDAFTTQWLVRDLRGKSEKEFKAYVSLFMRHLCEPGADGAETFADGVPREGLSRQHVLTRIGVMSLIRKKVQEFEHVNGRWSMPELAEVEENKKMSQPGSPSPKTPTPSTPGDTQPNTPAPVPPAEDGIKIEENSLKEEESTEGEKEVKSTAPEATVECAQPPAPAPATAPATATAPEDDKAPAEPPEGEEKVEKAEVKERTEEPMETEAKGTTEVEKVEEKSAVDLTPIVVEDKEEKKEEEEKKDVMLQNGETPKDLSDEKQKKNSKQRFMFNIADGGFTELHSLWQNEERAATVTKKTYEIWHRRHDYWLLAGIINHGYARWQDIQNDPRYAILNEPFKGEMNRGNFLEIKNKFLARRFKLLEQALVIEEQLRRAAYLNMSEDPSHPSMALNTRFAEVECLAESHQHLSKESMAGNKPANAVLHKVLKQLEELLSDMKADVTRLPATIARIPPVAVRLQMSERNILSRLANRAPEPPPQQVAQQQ
# UniProt E9Q7E2: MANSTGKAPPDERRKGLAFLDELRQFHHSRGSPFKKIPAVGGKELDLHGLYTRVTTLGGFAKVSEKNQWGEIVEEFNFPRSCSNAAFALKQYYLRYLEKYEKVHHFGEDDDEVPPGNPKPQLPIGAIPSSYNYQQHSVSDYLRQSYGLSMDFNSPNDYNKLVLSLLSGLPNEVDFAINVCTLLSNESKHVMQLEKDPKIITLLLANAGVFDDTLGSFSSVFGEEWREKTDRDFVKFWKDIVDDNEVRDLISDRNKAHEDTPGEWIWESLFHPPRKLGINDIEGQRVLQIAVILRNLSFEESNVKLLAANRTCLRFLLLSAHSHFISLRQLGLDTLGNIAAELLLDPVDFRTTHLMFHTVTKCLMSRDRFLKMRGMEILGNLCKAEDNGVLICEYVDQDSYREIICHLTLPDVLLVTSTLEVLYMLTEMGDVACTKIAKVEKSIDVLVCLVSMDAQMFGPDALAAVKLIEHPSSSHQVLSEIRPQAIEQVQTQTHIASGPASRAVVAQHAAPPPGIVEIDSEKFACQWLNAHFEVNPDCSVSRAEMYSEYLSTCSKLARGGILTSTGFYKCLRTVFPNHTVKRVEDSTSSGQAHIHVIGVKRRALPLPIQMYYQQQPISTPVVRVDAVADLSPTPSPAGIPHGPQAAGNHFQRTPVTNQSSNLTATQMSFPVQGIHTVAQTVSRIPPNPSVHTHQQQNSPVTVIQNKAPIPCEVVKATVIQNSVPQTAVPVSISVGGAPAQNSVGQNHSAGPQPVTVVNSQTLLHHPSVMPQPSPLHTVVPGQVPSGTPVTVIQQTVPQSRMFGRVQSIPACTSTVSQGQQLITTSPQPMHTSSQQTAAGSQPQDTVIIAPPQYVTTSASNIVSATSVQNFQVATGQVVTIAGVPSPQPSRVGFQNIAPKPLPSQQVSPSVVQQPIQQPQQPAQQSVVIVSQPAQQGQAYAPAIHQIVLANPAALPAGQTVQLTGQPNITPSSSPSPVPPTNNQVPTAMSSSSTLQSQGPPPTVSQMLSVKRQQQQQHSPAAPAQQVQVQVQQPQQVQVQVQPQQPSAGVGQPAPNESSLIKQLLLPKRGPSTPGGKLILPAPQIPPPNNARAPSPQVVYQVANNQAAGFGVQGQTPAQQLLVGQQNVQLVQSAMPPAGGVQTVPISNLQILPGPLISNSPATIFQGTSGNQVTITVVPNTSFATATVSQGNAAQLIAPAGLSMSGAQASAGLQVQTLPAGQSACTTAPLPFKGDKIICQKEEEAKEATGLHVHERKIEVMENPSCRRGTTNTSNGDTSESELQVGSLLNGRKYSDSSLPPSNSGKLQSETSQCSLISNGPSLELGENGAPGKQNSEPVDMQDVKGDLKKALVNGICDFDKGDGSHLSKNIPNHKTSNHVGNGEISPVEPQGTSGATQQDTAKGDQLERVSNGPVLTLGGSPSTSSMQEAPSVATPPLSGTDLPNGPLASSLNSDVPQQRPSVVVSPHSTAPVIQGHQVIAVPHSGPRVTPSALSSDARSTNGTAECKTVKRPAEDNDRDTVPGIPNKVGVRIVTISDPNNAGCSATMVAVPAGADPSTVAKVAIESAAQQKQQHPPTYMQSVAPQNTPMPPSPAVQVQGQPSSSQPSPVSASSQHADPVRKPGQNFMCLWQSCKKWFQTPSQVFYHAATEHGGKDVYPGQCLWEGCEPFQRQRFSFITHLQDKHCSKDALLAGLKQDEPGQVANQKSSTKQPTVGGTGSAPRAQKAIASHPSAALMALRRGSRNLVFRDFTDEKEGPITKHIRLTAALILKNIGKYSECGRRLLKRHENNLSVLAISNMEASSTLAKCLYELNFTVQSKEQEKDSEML
# UniProt O54941: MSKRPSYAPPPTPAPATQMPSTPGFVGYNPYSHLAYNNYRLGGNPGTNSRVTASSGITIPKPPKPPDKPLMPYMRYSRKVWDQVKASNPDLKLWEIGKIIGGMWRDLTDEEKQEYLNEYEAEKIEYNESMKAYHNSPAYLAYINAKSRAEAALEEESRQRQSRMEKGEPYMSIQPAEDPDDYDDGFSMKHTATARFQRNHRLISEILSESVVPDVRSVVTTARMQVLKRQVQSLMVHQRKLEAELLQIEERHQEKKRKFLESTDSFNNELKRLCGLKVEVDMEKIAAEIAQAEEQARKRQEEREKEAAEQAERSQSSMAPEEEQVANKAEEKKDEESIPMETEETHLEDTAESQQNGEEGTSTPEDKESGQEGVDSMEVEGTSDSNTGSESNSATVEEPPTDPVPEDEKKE
# UniProt Q6P9Z1: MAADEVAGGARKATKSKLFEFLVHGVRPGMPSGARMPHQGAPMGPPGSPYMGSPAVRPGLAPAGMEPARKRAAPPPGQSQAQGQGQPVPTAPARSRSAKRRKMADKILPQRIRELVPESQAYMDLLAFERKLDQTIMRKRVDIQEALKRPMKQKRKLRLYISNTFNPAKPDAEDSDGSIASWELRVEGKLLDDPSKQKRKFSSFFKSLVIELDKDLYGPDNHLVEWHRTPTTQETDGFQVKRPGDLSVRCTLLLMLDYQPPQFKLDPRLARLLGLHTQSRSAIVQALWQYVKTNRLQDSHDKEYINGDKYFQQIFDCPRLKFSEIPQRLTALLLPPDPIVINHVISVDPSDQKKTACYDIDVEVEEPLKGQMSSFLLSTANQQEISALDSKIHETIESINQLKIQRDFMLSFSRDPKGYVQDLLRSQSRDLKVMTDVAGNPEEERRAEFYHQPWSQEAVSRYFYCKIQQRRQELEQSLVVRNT
# UniProt P97496: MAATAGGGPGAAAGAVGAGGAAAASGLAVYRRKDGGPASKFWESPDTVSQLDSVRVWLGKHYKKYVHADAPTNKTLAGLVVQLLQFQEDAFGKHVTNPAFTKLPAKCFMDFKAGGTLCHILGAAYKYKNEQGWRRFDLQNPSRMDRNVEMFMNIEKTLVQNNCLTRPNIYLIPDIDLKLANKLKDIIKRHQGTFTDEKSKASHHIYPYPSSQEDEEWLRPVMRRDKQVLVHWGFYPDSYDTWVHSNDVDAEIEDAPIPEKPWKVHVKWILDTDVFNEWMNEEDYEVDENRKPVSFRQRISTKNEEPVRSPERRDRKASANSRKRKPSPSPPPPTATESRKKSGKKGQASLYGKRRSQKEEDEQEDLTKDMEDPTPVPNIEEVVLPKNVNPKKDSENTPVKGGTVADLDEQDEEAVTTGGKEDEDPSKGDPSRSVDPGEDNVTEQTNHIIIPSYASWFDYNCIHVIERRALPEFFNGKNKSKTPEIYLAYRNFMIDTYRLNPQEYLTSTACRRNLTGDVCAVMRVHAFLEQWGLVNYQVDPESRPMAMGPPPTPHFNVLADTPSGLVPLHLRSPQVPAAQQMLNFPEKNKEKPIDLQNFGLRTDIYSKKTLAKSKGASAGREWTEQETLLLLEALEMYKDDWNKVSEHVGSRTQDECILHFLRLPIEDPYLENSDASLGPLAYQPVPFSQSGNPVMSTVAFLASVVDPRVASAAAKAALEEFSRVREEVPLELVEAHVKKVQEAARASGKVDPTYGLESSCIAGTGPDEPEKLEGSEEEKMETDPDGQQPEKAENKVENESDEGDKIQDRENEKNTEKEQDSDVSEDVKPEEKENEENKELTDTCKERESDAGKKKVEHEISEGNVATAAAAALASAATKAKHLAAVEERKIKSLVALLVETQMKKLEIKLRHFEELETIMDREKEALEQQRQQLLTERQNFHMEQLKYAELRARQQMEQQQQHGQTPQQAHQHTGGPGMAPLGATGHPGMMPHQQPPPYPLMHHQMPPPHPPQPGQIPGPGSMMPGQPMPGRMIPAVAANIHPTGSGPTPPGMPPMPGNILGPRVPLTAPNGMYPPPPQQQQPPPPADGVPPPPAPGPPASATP
# These are yes or no findings as the source states them, for the method shown. Binding seen in cells or lysates may run through a third protein. These calls come from enrichment with a bait or labelling near it, and not all partners need be listed.
# Target: chromodomain helicase DNA-binding protein 4 (CHD4), wild type, mouse (mouse (endogenous in embryonic hearts)) (UniProt Q6PDQ2)
# Experiment: affinity purification with mass spectrometry
row,Substance,binding
1,ARID1A (from UniProt A2BH40 1-2283),binds
2,ARID2 (from UniProt E9Q7E2 1-1828),binds
3,BAF57 (from UniProt O54941 1-411),binds
4,BAF60C (from UniProt Q6P9Z1 1-483),binds
5,BAF155 (from UniProt P97496 1-1104),binds
